Library screening results

Measurements from “University of Dundee, Small-Polar-MMV Screening Library” (2021), ChEMBL document CHEMBL3988442.

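Whole-cell assay for inhibitors of Mycobacterium tuberculosis growth, labelled Cornell in the record; the read-out is not stated. The concentration is filed as 10 mM, unlikely as a test dose, so the dose is not known. Higher means stronger inhibition (inferred from two other growth screens of the library). About 53,000 compounds were tested under these conditions; 1.7% (about 900) showed 50% or more at least once.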

The filed quantity is “Percent Effect” (%). How 0% and 100% were set is not recorded. Most values in the screen are low, and negative values occur. Compounds were drawn at random from those tested, without regard to their results.

Compound | Percent Effect
O=C(O)C(F)(F)F.[H][C@@]12OCCN(Cc3nccn3C)[C@@]1([H])CCC2CNC(=O)c1ccco1 (stereo partly drawn) | 4.192%
CC(=O)N1CCC(Cc2cccc(-c3c(C)noc3C)n2)C1 (stereo not drawn) | -13.39%
Cc1cc(C)n(CC2CCCN2CC(=O)Nc2cc(C(C)C)no2)n1 (stereo not drawn) | -15.29%
Cc1ccc(CN[C@@H]2COC[C@H]2Cc2cc(C)no2)cc1.O=C(O)CC(O)(CC(=O)O)C(=O)O | -7.604%
[H][C@]12CCN(S(=O)(=O)c3ccc(C)cc3)[C@@]1([H])[C@@H](NC(=O)c1[nH]ncc1Br)C2 | -1.622%
Cc1cc(CN(Cc2cccnc2)CC2CCCO2)on1 (stereo not drawn) | 10.33%
CC(C)(C)c1nc(CN2CCOC(Cn3cncn3)C2)cs1 (stereo not drawn) | 5.278%
OC1(CNCCSCc2ccccc2)CCCNC1 (stereo not drawn) | -9.134%
CN(C)CCOCC1CN(C(=O)c2ccsc2)Cc2ccnn2C1.O=C(O)C(F)(F)F.O=C(O)C(F)(F)F (stereo not drawn) | 20.8%
COc1nonc1NCn1nc(C)cc1C | -90.15%
CC(=O)N1CCC(C(=O)NC2CC(C)(C)Oc3cc(C)ccc32)CC1 (stereo not drawn) | -40.57%
CN(CCCOc1ccccc1)C(=O)CN1CCc2cncnc2C1 | 20.6%
CC(Cn1cccn1)C(=O)N1CCC(Nc2cccnn2)CC1 (stereo not drawn) | -9.426%
Cc1cc(C)n(CC2CCCN2CC(=O)N(C)Cc2cnn(C)c2)n1 (stereo not drawn) | 3.932%
Cc1ccccc1OC1CN(Cc2c(C)nc3ccccn23)C1 | 19.04%
Cc1cccc2[nH]c(-c3cn(C4CCNCC4)nn3)nc12 | -9.428%
CC(C)N1CCCC(Cc2nccnc2Cl)C1 (stereo not drawn) | 5.688%
CC(C)(C)OC(=O)NCC1CCN(C(=O)c2ccc(F)cc2F)C1 (stereo not drawn) | -9.817%
Cc1ccc(C(=O)NCCS(=O)(=O)N2CCSCC2)o1 | 8.936%
COc1ccc(NC(=O)Cn2nc(C)c(C(C)=O)c2C)cc1 | 109.6%
Cc1cc(N2CCC(CO)(CC3CCCCO3)CC2)c2ccccc2n1 (stereo not drawn) | 0.8134%
COCc1nc(C(=O)N2CCN(Cc3ccsc3)CC2)cs1 | 21.86%
CCC(=O)NCC(=O)NCC1(c2c(F)cccc2F)CCCC1 | 9.748%
Cc1nc(NC2CCCC2)cc(C2CCN2C(=O)c2cnn(C)c2)n1 (stereo not drawn) | 15.53%
Cc1nccn1CCC1CCCCN1Cc1ccc(O)cc1Cl (stereo not drawn) | -15.23%
CN(C)C(=O)CC1CC2(CCN(CC3CC3)CC2)c2cc(F)ccc21.O=C(O)C(F)(F)F (stereo not drawn) | -19.57%
CCC(O)CNc1nccc(-c2ccc(C)nc2C)n1 (stereo not drawn) | 41.55%
CC(c1cccc(S(N)(=O)=O)c1)N(C)CCOc1ccccc1 (stereo not drawn) | 8.348%
O=C(Nc1ccccc1)C1CN(CC2CCOCC2)CC12CCOCC2.O=C(O)C(F)(F)F (stereo not drawn) | -8.747%
COCC(=O)N1CCC(c2cc(-c3ccc(OC)cc3)n[nH]2)C1 (stereo not drawn) | -20.64%
CN(C)C(CNC(=O)NCCS(C)(=O)=O)c1ccco1 (stereo not drawn) | -3.841%
COc1ccccc1CN1C[C@@H](F)[C@@H](OCc2nc3ncccc3[nH]2)C1 | -34.79%
CCn1cncc1CN(Cc1ccc(OC)cc1OC)CC1CCCO1.O=C(O)CC(O)(CC(=O)O)C(=O)O (stereo not drawn) | 29.78%
Cc1nc(C)n(CC2CCCCN2c2ncnc3ccsc23)n1 (stereo not drawn) | -18.94%
CCc1nn(C)c(Cl)c1CN1CCCC(c2cc(O)nc(C)n2)C1 (stereo not drawn) | -8.731%
c1ccc(C2CN(CCc3ccncc3)CCO2)cc1 (stereo not drawn) | 20.7%
CNS(=O)(=O)c1cccc(CNC(=O)CCc2ccsc2)c1 | -17.33%
c1csc(N2CCCN(c3nccn4cnnc34)CC2)n1 | -4.013%
O=C(O)C(F)(F)F.[H][C@]12CN(Cc3nccs3)C[C@@]1([H])OCCN(C(=O)c1cccn1C)C2 | 8.526%
[H][C@@]12CN(C(=O)C3CCOCC3)C[C@@]1([H])N(CC(C)C)C(=O)CO2 | 21.28%
Cc1ccc(C(C)NCc2c(C(C)C)nn(C)c2N2CCOCC2)o1 (stereo not drawn) | 7.167%
[H][C@@]12CCN(C(=O)Cc3ccc(F)cc3OC)C[C@]1([H])OCCNC2=O | 0.08491%
CCc1nc(CN2CCCC(NCc3ccc(C(N)=O)cc3)C2)no1 (stereo not drawn) | 15.47%
CS(=O)(=O)CC1CCCN(C(=O)Cn2cccc(C(F)(F)F)c2=O)C1 (stereo not drawn) | -24.47%
Cc1cc(C)n(CC2CCCN2C(=O)c2cnn(C)c2C2CC2)n1 (stereo not drawn) | -0.6769%
CCNc1ncc(CN2C[C@@H](C(=O)O)[C@H](C3CC3)C2)cn1 | 16.04%
CS(=O)(=O)c1ccc(C(=O)NCCNc2ncccn2)cc1 | -7.248%
O=C1NCC2(CCCN(C(=O)c3c[nH]nc3-c3cccs3)C2)O1 (stereo not drawn) | -9.918%
NC(=O)c1ccc(S(=O)(=O)NCCc2ccccn2)cc1 | -27.45%
Cc1ccc(CNC(=O)NC2CCCc3c2cnn3CCO)cn1 (stereo not drawn) | -19.12%
CS(=O)(=O)N1CCCC12CCCN(C(=O)c1ccncc1)C2 (stereo not drawn) | 19.1%
CN(CCc1ccncc1)Cc1nccn1Cc1ccccc1 | -0.01314%
O=C(O)C(F)(F)F.O=C(O)C(F)(F)F.[H][C@@]12COC[C@]1(COCc1cccc(C)n1)CN(c1cc(OC)ncn1)C2 | 7.772%
O=C(CCS(=O)(=O)C1CCCC1)NCCc1cccnc1 | 0.6573%
CN1C(=O)c2ccc(NC(=O)CSc3ccc4c(c3)CCC4)cc2C1=O | -46.13%
O=C(O)[C@H]1C[C@@H](C(=O)NCc2ccncc2)CN(Cc2ccccc2)C1 | -1.491%
CC1Oc2c(cccc2C(=O)N2CCCCCC2)NC1=O (stereo not drawn) | 6.315%
Cc1ccsc1C(=O)N1C[C@@H](C(=O)O)[C@H](C(C)C)C1 | 9.884%
O=C(O)C(F)(F)F.[H][C@@]12CCN(Cc3nccs3)[C@]1([H])CC[C@@H](C(=O)N(C)C)O2 | 13.75%
Cn1cc(Br)cc(NC(=O)CC2CCC2)c1=O | 6.308%
CCNc1cc2c(nn1)CCN(C(=O)c1cc3cc(C)ccc3o1)C2 | -14.68%
CNC(=O)c1cccnc1N1CCN(Cc2ccccc2)C(CCO)C1 (stereo not drawn) | 23.64%
CC(C)(C(=O)NCC(N)=O)c1ccccc1F | 10.63%
CCc1ccc(CN2C[C@@H](C)C3(CCN(CC(=O)N(C)C)C3=O)C2)o1.O=C(O)C(F)(F)F (stereo partly drawn) | 7.516%
Cn1cnc(S(=O)(=O)NCCCN2CCCCCC2)c1Cl | 7.407%
Cc1nnc(Cn2cc(I)cc(C)c2=O)o1 | 11.6%
CCc1nc(C2CCCN2Cc2ccno2)no1 (stereo not drawn) | -55.41%
O=C(O)C(F)(F)F.O=C(O)C(F)(F)F.[H][C@]12CCC[C@@]1(COCc1ccncc1)CN(C(=O)c1ccc(C)nc1)C2 | 5.143%
O=C(O)C(F)(F)F.[H][C@@]12CCCO[C@]1([H])[C@H](N(C)Cc1ccco1)CN(C(=O)c1ccnnc1)C2 | -6.866%
COc1nc2cc(C)ccc2cc1CN(C)Cc1cc(C)[nH]n1.O=C(O)CC(O)(CC(=O)O)C(=O)O | -1.428%
CC(C)CN1CCC(NC(=O)NCCC(=O)NCc2ccccc2)CC1 | -17.98%
O=C(Nc1cc[nH]n1)c1ccc(COCC(F)(F)F)cc1 | 14.24%
Cc1ccc(CN2CC3(CCN(C(=O)c4cccnc4)C3)C2)o1.O=C(O)C(F)(F)F.O=C(O)C(F)(F)F | -22.43%
O=C(c1cccc(NCCO)c1)N1CCOCC1 | -10.09%
Cc1nc(C(C)C)sc1C(=O)NCCSc1ccccn1 | 32.13%

Once more, the final 5:

CC(C)CN1CCC(NC(=O)NCCC(=O)NCc2ccccc2)CC1 gave -17.98%.
O=C(Nc1cc[nH]n1)c1ccc(COCC(F)(F)F)cc1 gave 14.24%.
Cc1ccc(CN2CC3(CCN(C(=O)c4cccnc4)C3)C2)o1.O=C(O)C(F)(F)F.O=C(O)C(F)(F)F gave -22.43%.
O=C(c1cccc(NCCO)c1)N1CCOCC1 gave -10.09%.
Cc1nc(C(C)C)sc1C(=O)NCCSc1ccccn1 gave 32.13%.